Drawing on article doi:10.1101/2022.03.23.484325, this text covers binding for one molecule.

Amino acid sequences for entries named in this document (tags omitted). Residues count along the entry.
UniProt Q8IYV9, residues 22-292: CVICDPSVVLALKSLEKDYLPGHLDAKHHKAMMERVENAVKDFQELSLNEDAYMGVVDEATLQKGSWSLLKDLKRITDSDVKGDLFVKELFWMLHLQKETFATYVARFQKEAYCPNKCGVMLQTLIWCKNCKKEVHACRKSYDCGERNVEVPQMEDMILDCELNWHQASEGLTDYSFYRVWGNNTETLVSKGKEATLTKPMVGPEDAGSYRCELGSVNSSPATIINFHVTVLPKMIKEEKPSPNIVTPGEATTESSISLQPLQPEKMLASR

For experiment [1], the target named is SPACA6 ectodomain (Sperm Acrosome Membrane-Associated protein 6, residues 27-246) (human) (UniProt W5XKT8). Nature of the experiment: SEC-MALS.
Experiment [2] deals with His-tagged IZUMO1 ectodomain (bait in pull-down) (human) (UniProt Q8IYV9). Nature of the experiment: pull-down.

No constants are given. Whether binding was seen depends on the method and setting.

B1: SPACA6 ectodomain (Sperm Acrosome Membrane-Associated protein 6, residues 27-246) (domain or fragment, UniProt W5XKT8-1 27-246)
chain: CLLCFTTYSERLRICQMFVGMRSPKLEECEEAFTAAFQGLSDTEINYDERSHLHDTFTQMTHALQELAAAQGSFEVAFPDAAEKMKKVITQLKEAQACIPPCGLQEFARRFLCSGCYSRVCDLPLDCPVQDVTVTRGDQAMFSCIVNFQLPKEEITYSWKFAGGGLRTQDLSYFRDMPRAEGYLARIRPAQLTHRGTFSCVIKQDQRPLARLYFFLNVTG
modifications: one N-linked glycan (fully glycosylated)
As to B1, the binding entry is recorded as “no binding (tested: 1.2 mg mL^-1)” in experiment [1] and “no binding” in experiment [2].
